Reference: PubChem BioAssay AID743454 (Peter MacCallum Cancer Centre, 2014)

- Screen: 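Genes whose loss kills vorinostat-resistant colon cancer cells under vorinostat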 (primary screen)
- Cell system: human HCT116-VR colon cancer cells, selected for vorinostat resistance
- Knock-down reagent: siRNA pool against human genes, 40 nM siRNA pool
- Time to read-out: vorinostat for 24 h, read-out about 72 h after transfection
- Treatment: vorinostat at 2.5 µM final
- Detection: 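Cell viability by CellTiter-Fluor and caspase 3/7 activity by luminescence, each scaled to mock wells per plate, duplicates averaged, then robust z-scored over all plates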
- Direction: viability robust z-score: higher = more viable cells than screen typical; caspase robust z-score: higher = more caspase 3/7 activity than screen typical
- Active means: 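Hits are knock-downs in viability class RV1/RV2 or caspase class CA1/CA2, excluding ones that killed cells in the no-drug cell-count arm; hits then retested with single siRNAs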
The deposit covers about 18,000 reagents; shown is an unselected part. 450 of them (2.5%) were called active. 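Single biological run; no consistent viability z cut-off exists, so the class columns, not z-scores, define the calls.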

Target gene	PubChem SID	viability hit class	caspase hit class	viability robust z-score	caspase robust z-score	Call
TSPYL1 (GeneID 7259)	SID135624777	no change	no change	-0.19	-1.04	inactive
TPBG (GeneID 7162)	SID135620810	no change	no change	-0.5	-0.86	inactive
SBK1 (GeneID 388228)	SID152154198	no change	no change	-0.97	-0.94	inactive
NPR2 (GeneID 4882)	SID152151652	no change	no change	0.1	0.76	inactive
TRPA1 (GeneID 8989)	SID152151138	no change	no change	-0.38	2.74	inactive
EIF5A (GeneID 1984)	SID134319765	no change	no change	-0.88	-1.16	inactive
TGDS (GeneID 23483)	SID135621788	no change	no change	-2.05	3.15	inactive
PRTFDC1 (GeneID 56952)	SID134319724	no change	no change	0.62	-0.66	inactive
OR5M11 (GeneID 219487)	SID134329892	no change	no change	-0.15	-0.36	inactive
PIERCE1 (GeneID 138162)	SID152150813	no change	no change	0.99	1.26	inactive
ACER2 (GeneID 340485)	SID152154793	no change	no change	-0.14	5.03	inactive
TP53 (GeneID 7157)	SID135620665	no change	no change	-0.28	-0.07	inactive
DYNC1I1 (GeneID 1780)	SID152153774	no change	no change	0.88	0.56	inactive
KIF21B (GeneID 23046)	SID152147132	no change	no change	1	-0.81	inactive
FAT1 (GeneID 2195)	SID152156398	no change	no change	0.16	0.34	inactive
CCT8 (GeneID 10694)	SID135621595	no change	no change	-2.56	4.67	inactive
KRTAP5-2 (GeneID 440021)	SID134329844	no change	no change	0.75	-0.22	inactive
DUSP18 (GeneID 150290)	SID135621464	no change	CA1 (caspase activation)	1.06	5.65	active
NUAK1 (GeneID 9891)	SID56478923	no change	no change	-1.31	2.91	inactive
NXPH2 (GeneID 11249)	SID135624734	no change	no change	-0.22	0.18	inactive
EIF1B (GeneID 10289)	SID134323744	no change	no change	1.53	0.37	inactive
TRAPPC6A (GeneID 79090)	SID134318474	no change	no change	-1.2	0.39	inactive
RAB9B (GeneID 51209)	SID134314702	no change	no change	-0.7	0.57	inactive
SF3A3 (GeneID 10946)	SID135623840	no change	no change	-4.07	-0.26	inactive
PNPLA6 (GeneID 10908)	SID152147103	no change	no change	1.38	-1.06	inactive
KRT84 (GeneID 3890)	SID152152516	no change	no change	0.36	0.94	inactive
FKRP (GeneID 79147)	SID135623682	no change	no change	0.76	2.84	inactive
TMTC4 (GeneID 84899)	SID152150979	no change	no change	-1.27	0.36	inactive
TLN2 (GeneID 83660)	SID152147320	no change	no change	0.4	-0.25	inactive
SOBP (GeneID 55084)	SID152156679	no change	no change	-0.58	1.36	inactive
HAT1 (GeneID 8520)	SID152148849	no change	no change	2.12	-0.14	inactive
DLG4 (GeneID 1742)	SID152149566	no change	no change	-0.24	0.32	inactive
NR3C1 (GeneID 2908)	SID135620674	no change	no change	0.21	0.06	inactive
FAM220A (GeneID 84792)	SID135622853	no change	no change	-0.18	-0.68	inactive
TSPY2 (GeneID 64591)	SID152155172	no change	no change	1.23	0.38	inactive
ZNF674 (GeneID 641339)	SID135625446	no change	no change	1.38	-0.96	inactive
NIPA1 (GeneID 123606)	SID134320270	no change	no change	0.1	-0.12	inactive
NME8 (GeneID 51314)	SID152147668	no change	no change	2.42	-0.61	inactive
ZNF429 (GeneID 353088)	SID152156541	no change	no change	1.28	0.7	inactive

3 of these entries, set out differently.
NR3C1 (GeneID 2908) [SID135620674]
- viability hit class: no change
- caspase hit class: no change
- viability robust z-score: 0.21
- caspase robust z-score: 0.06
- Call: inactive

FAM220A (GeneID 84792) [SID135622853]
- viability hit class: no change
- caspase hit class: no change
- viability robust z-score: -0.18
- caspase robust z-score: -0.68
- Call: inactive

TSPY2 (GeneID 64591) [SID152155172]
- viability hit class: no change
- caspase hit class: no change
- viability robust z-score: 1.23
- caspase robust z-score: 0.38
- Call: inactive
